# PubChem BioAssay AID504774 | Drosophila RNAi Screening Center | 2011
# Test: 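Fly genes whose loss alters survival after alkylation damage to DNA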 (primary screen)
# Cells: Drosophila Kc167 cells
# Knock-down reagent: long dsRNA against Drosophila genes, about 0.25 µg dsRNA per well
# Timing: about 6 days: 3 days knock-down, then 3 days with or without MMS
# Conditions: methyl methanesulphonate 0.004% (w/v) for 3 days after knock-down
# Measured: 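ATP-dependent luminescence as a measure of live cells in MMS-exposed wells, quantile normalised within each plate, with replicate values also given as a mean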
# Reading the numbers: mean viability with MMS and viability with MMS: higher = more surviving cells after MMS
# The deposit covers about 23,000 reagents; shown is a random part of those that have a named target and a result. 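Values are quantile-normalised luminescence on an arbitrary scale; higher means more cells surviving MMS.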 Reagents against one gene are numbered here. A plus sign joins genes that one reagent is predicted to hit.
gene,reagent,mean viability with MMS,"viability with MMS, replicate 1","viability with MMS, replicate 2"
nanos,1,3.33e6,3.83e6,3.77e6
sha (shavenoid),1,3.54e6,4.00e6,4.11e6
CG17683,1,3.31e6,3.81e6,3.75e6
CG31957,1,3.36e6,3.96e6,3.70e6
CG2991,1,3.55e6,4.00e6,4.03e6
mip130 (Myb-interacting protein 130),1,3.50e6,3.99e6,3.97e6
CG2267,1,3.39e6,3.78e6,3.82e6
CG1888,1,3.54e6,3.85e6,4.18e6
GILT2 (Gamma-interferon-inducible lysosomal thiol reductase 2),1,3.76e6,4.29e6,4.15e6
Chsy (Chondroitin sulfate synthase),1,3.54e6,3.98e6,4.06e6
Chsy (Chondroitin sulfate synthase),2,3.72e6,4.13e6,4.21e6
GstO3 (Glutathione S transferase O3),1,3.62e6,4.14e6,4.10e6
CG18004,1,3.72e6,4.04e6,4.40e6
srl (spargel),1,3.58e6,4.02e6,4.09e6
vas (retired record),1,3.67e6,4.15e6,4.10e6
CG18294,1,3.66e6,4.09e6,4.16e6
cpa (capping protein alpha),1,3.50e6,3.96e6,4.08e6
Idh3a (Isocitrate dehydrogenase 3a),1,3.55e6,4.00e6,4.05e6
CCT6 (Chaperonin containing TCP1 subunit 6),1,3.22e6,3.77e6,3.37e6
Orc5 (Origin recognition complex subunit 5),1,3.54e6,4.07e6,3.96e6
CG1979,1,3.48e6,4.02e6,3.85e6
CG42591,1,3.55e6,4.07e6,3.97e6
Oat (Ornithine aminotransferase precursor),1,3.46e6,3.94e6,3.90e6
Ser (Serrate),1,3.67e6,4.16e6,4.15e6
Cpr47Ee (Cuticular protein 47Ee),1,2.48e6,2.97e6,2.97e6
Cpr47Ee (Cuticular protein 47Ee),2,3.52e6,3.96e6,4.06e6
her (hermaphrodite),1,3.58e6,3.82e6,4.33e6
Nepl8 (Neprilysin-like 8),1,3.31e6,3.76e6,3.70e6
Acp76A (Accessory gland protein 76A),1,3.51e6,3.97e6,3.96e6
CG5569,1,3.58e6,4.05e6,4.07e6
Traf6 (TNF-receptor-associated factor 6),1,3.66e6,4.21e6,4.09e6
CG5062,1,3.40e6,3.82e6,3.88e6
CG34242,1,3.42e6,3.86e6,3.90e6
Trap1,1,3.48e6,3.93e6,4.08e6
CG5326,1,3.65e6,4.09e6,4.16e6
CG5326,2,3.74e6,4.18e6,4.23e6
HHEX (Hematopoietically expressed homeobox),1,3.14e6,3.67e6,3.67e6
CG2147,1,3.64e6,4.18e6,3.99e6
Irk1 (Inwardly rectifying potassium channel 1),1,3.84e6,4.39e6,4.29e6
ste24b (ste24b prenyl protease type I),1,3.56e6,3.99e6,4.07e6
CG31550,1,3.56e6,3.98e6,4.09e6
CG31550,2,3.48e6,3.95e6,3.91e6
CG14118,1,3.55e6,4.08e6,3.96e6
CG3906,1,3.75e6,4.28e6,4.17e6
CYTB (retired record),1,3.47e6,3.95e6,3.95e6
Sp1,1,3.54e6,4.08e6,3.95e6
Sp1,2,3.45e6,3.94e6,3.87e6
Dh44-R1 (Diuretic hormone 44 receptor 1),1,3.54e6,3.95e6,4.07e6
CR46300 (pseudo),1,3.59e6,4.15e6,3.97e6
DUBAI + Tmem18,1,3.47e6,4.00e6,3.93e6
CG17376,1,3.35e6,3.76e6,3.94e6
snoRNA:Me28S-C3420b + RpS11,1,3.74e6,4.16e6,4.35e6
CG7365,1,3.56e6,4.07e6,4.00e6
bor (belphegor),1,3.43e6,3.92e6,3.84e6
Gal (beta galactosidase),1,3.44e6,3.92e6,3.89e6
CG5246,1,3.59e6,4.12e6,4.05e6
CG14017,1,3.54e6,3.96e6,4.06e6
CG14219,1,3.51e6,3.98e6,3.99e6
Elo68beta (Elongase 68beta),1,3.77e6,4.15e6,4.30e6
Msp300 (Muscle-specific protein 300 kDa),1,3.33e6,3.85e6,3.72e6
Msp300 (Muscle-specific protein 300 kDa),2,3.65e6,3.98e6,4.30e6
Msp300 (Muscle-specific protein 300 kDa),3,3.39e6,3.88e6,3.85e6
Msp300 (Muscle-specific protein 300 kDa),4,3.27e6,3.69e6,3.70e6
Msp300 (Muscle-specific protein 300 kDa),5,3.64e6,4.13e6,4.08e6
Msp300 (Muscle-specific protein 300 kDa),6,3.56e6,3.99e6,4.07e6
Msp300 (Muscle-specific protein 300 kDa),7,3.67e6,4.04e6,4.22e6
Top3beta (Topoisomerase 3beta),1,3.28e6,3.91e6,4.08e6
Rgl (Ral guanine nucleotide dissociation stimulator-like),1,3.40e6,3.83e6,3.83e6
